Reference: PMC10910311
No constants are given. Whether binding was seen depends on the method and setting. In cells and extracts the contact can be indirect. Some binding calls cover weakened binding; strength is not graded here. Sequences can lack the tags named with a protein.

Sequences of proteins named here, by UniProt entry; tags and fusion partners are left off.
UniProt Q9H2F5: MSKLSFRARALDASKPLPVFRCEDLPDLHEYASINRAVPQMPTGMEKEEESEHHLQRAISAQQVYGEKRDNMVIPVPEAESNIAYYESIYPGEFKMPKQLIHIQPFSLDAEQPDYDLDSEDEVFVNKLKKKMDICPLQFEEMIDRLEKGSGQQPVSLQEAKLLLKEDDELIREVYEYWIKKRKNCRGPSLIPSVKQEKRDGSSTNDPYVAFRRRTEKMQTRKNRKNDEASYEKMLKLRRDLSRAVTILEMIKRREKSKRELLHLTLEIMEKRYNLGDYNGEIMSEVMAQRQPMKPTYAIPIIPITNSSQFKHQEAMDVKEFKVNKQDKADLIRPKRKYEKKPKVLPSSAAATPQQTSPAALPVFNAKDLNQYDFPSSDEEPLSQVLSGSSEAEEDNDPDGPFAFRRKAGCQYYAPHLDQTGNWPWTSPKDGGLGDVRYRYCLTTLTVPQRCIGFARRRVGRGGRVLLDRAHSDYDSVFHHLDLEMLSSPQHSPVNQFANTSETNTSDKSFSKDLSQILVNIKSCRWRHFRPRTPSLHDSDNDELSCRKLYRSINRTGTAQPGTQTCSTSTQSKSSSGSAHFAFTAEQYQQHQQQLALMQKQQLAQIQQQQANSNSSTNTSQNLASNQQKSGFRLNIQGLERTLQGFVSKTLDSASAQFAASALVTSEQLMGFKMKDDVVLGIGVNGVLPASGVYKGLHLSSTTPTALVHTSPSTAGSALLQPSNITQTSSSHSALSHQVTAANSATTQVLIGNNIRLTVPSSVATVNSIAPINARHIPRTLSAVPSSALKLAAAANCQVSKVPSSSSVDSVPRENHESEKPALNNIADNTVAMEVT
UniProt Q52LR7: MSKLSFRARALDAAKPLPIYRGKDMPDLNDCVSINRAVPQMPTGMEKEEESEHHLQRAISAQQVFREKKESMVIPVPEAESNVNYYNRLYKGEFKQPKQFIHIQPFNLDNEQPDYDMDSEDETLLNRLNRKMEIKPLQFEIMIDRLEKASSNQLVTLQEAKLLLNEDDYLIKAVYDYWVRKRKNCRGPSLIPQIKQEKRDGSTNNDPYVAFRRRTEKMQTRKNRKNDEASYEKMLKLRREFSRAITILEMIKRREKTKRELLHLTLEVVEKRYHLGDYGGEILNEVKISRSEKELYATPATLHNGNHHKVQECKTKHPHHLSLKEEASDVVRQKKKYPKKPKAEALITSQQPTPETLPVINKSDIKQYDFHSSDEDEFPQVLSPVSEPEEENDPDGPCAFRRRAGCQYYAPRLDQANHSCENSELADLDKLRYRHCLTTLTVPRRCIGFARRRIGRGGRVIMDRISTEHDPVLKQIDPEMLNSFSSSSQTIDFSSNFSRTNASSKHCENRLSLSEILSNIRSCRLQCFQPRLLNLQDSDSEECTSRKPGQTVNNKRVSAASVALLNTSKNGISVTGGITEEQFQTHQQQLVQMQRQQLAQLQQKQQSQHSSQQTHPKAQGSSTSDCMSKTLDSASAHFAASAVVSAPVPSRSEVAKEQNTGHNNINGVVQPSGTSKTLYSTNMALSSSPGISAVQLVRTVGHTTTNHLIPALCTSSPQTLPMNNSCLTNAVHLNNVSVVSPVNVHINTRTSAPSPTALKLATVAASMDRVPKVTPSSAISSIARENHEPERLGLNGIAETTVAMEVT

How the values were obtained:
[1] = biological target: T1, HA-FOXR2 (forkhead box R2) (human) (UniProt Q6PJQ5); assay: co-IP; 293T cells co-transfected with HA-FOXR2/SRF and Myc-EPC1/EPC2, collected 36 to 48 h after transfection; cell extracts incubated with anti-HA-Tag antibody-conjugated agarose beads for 4 h at 4°C, beads washed with PBS, Western blot
T1 sequence: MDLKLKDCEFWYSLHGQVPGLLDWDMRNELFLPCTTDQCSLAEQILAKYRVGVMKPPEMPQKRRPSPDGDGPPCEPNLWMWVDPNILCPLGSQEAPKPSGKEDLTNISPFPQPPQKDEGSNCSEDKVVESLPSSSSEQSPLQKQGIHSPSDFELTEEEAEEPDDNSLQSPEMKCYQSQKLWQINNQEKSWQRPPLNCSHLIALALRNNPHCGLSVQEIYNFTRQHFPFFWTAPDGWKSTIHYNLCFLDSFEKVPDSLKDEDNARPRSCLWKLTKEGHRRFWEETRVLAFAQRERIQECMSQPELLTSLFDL

[2] = biological target: T2, HA-SRF (serum response factor) (human) (UniProt P11831); assay: as above
T2 sequence: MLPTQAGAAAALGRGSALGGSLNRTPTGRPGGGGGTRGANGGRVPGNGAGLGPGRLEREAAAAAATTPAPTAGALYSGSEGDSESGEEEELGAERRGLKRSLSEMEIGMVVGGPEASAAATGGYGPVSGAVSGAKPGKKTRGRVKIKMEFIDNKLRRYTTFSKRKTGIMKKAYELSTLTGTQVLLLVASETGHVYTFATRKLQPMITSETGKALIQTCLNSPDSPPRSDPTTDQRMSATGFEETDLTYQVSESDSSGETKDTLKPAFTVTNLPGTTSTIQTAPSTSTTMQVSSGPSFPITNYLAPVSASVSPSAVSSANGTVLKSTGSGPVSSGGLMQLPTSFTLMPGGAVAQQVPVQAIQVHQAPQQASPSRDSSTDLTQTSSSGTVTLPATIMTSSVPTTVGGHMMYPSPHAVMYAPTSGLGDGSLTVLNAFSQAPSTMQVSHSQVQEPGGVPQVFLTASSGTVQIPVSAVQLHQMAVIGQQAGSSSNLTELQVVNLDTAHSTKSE

Substance	binding [1]	binding [2]
Myc-EPC1 (enhancer of polycomb 1) (from UniProt Q9H2F5 1-836)	binds	binds
Myc-EPC2 (enhancer of polycomb 2) (from UniProt Q52LR7 1-807)	binds	binds
